# In PubChem BioAssay AID540256 (National Center for Advancing Translational Sciences (NCATS), 2011):
# Screen size: about 300,000 compounds; about 3,700 (1.2%) were called active. Inconclusive results, whose numbers are uncertain, are shown with a selection of clear calls. Calls follow the shape of the full dose curve; tested in HEK293 cells. Where the call is inconclusive, the potency comes from a doubtful curve fit.
# Assay: qHTS for Inhibitors of binding or entry into cells for Lassa Virus; also: nearly all actives have a fitted effect of over 50% in size
# Settings: Lassa virus pseudotype entry inhibition, cell reporter; activity change, negative = inhibition: at 37.9 µM (top of the series) unless noted
# % is scaled to controls: 0 for no effect and ±100 for the full control effect; potency is read from the fitted curve at half-maximal effect.
SMILES,Potency,"activity change, negative = inhibition"
Cc1ccc2c(=O)c(C(=O)c3cccc(Cl)c3)cn(CC(=O)Nc3ccc4c(c3)OCCO4)c2n1,"inconclusive: 1 µM [inhibitor, full curve, poor fit]",–
C[C@@H]1[C@@H](c2ccccc2)Oc2c(Cl)cccc2S(=O)(=O)N1Cc1cccc(F)c1,–,inactive: -0.637% [at 46.1 µM]
COC(=O)c1ccc(NC(=O)Nc2ccc3c(c2)OCO3)cc1,–,inactive: -14.3% [at 46.1 µM]
O=C(CSc1nnc(-c2ccccc2)o1)N1CCCC1,–,inactive: 24.9%
CCc1ccc(NC(=S)N(CCN2CCCCC2)Cc2ccco2)cc1,"inconclusive: 10.3 µM [inhibitor, partial curve, poor fit]",–
CSc1ccccc1C(=O)NCCSc1ccccc1,–,inactive: 22.4%
Cc1c(C(=O)O)[nH]c2c1C(=O)CC(c1ccc(Cl)cc1)C2 (stereo not given),"inconclusive: 0.103 µM [inhibitor, full curve, poor fit]",–
CCOC(=O)c1ccc(NC(=S)NCCCN2CCN(C3CCCCC3)CC2)cc1,"inconclusive: 35.5 µM [inhibitor, single point]",–
O=C(CN1CCN(c2ccccn2)CC1)Nc1ccc(Br)cc1,"inconclusive: 4.47 µM [inhibitor, full curve, poor fit]",–
COC(=O)c1sc(NC(=O)c2cc(-c3ccccc3)nc3ccccc23)c(C#N)c1C,"inconclusive: 35.5 µM [inhibitor, single point]",–
Cc1[nH]c2ccc(C(=O)N3CCCCC3)cc2c1C,–,inactive: -19.5%
COc1ccc(-c2n[nH]c(C)c2-c2ccccc2OC)c(O)c1,"inconclusive: 8.91 µM [inhibitor, partial curve, poor fit]",–
O/N=C/c1cccc[n+]1CCCCCC[n+]1ccccc1/C=N/O,"inconclusive: 3.16 µM [inhibitor, single point]",–
COc1ccc2c(CNCCc3ccco3)c(C(=O)O)n(Cc3ccccc3)c2c1,"inconclusive: 20 µM [activator, partial curve, poor fit]",–
O=C(CC(=O)N/N=C\c1ccccc1)NCCc1ccccc1,"inconclusive: 1.41 µM [activator, partial curve, poor fit]",–
Cc1cc(S(=O)(=O)Nc2ccc(-c3ccc(N4CCCCCC4)nn3)cc2)c(C)cc1Cl,"inconclusive: 25.1 µM [inhibitor, single point]",–
COCCOc1ccc(C(F)(F)F)cc1NC(=O)c1ccc(F)cc1,–,inactive: -4.5%
CCOC(=O)c1sc(Nc2nc3ccc(OC)cc3s2)cc1C,–,inactive: -2.38%
COc1ccc(NC(=O)CN(C)S(=O)(=O)c2ccc3c(c2)OCCO3)c2ncccc12,"inconclusive: 0.651 µM [inhibitor, partial curve, poor fit]",–
COc1ccc(NC(=O)c2cc(-c3ccc(OC)c(OC)c3)on2)cc1OC,–,inactive: -34.6% [at 14.3 µM]
COc1ccc(-n2c(/C=C3\C(=O)N(C)c4ccccc43)nc3ccccc3c2=O)cc1,"inconclusive: 3.98 µM [inhibitor, full curve, poor fit]",–
CN(C)C(CNC(=O)c1ccc(NC(=O)CC#N)cc1)c1ccccc1 (stereo not given),"inconclusive: 35.5 µM [activator, single point]",–
Nc1ccccc1C=C1Cc2ccccc2C1=O,"inconclusive: 10 µM [inhibitor, partial curve, poor fit]",–
CCOc1ccc(NC(=O)C2CCN(c3nnc(-n4c(C)ccc4C)s3)CC2)cc1,–,inactive: 4.38% [at 46.1 µM]

# Of the compounds above, these have an NH in an aromatic ring:
SMILES,Potency,"activity change, negative = inhibition"
Cc1c(C(=O)O)[nH]c2c1C(=O)CC(c1ccc(Cl)cc1)C2 (stereo not given),"inconclusive: 0.103 µM [inhibitor, full curve, poor fit]",–
Cc1[nH]c2ccc(C(=O)N3CCCCC3)cc2c1C,–,inactive: -19.5%
COc1ccc(-c2n[nH]c(C)c2-c2ccccc2OC)c(O)c1,"inconclusive: 8.91 µM [inhibitor, partial curve, poor fit]",–

# The listing continues:

SMILES,Potency,"activity change, negative = inhibition"
Cc1cc(C)cc(-n2nc(C)cc2N)c1,–,inactive: -10.2%
S=C(NCCCNC(=S)Nc1ccccc1)Nc1ccccc1,"inconclusive: 4.47 µM [activator, single point]",–
CCOc1ccccc1NC(=O)N1CCc2ccccc2C1,–,inactive: 1.68% [at 46.1 µM]
CCOc1ccc(NC(=O)c2ccccc2O)cc1,"inconclusive: 35.5 µM [inhibitor, single point]",–
Cc1ccccc1NC(=O)CN1C(=O)N/C(=C\c2ccccc2OCc2ccc(C(=O)O)cc2)C1=O,"inconclusive: 35.5 µM [activator, partial curve, poor fit]",–
CCOC(=O)c1cccc(NC(=O)NCc2ccc3c(c2)CCN3C(=O)c2ccccc2)c1,"inconclusive: 35.5 µM [inhibitor, single point]",–
CCCCc1ccc(NC(=O)c2cccn(Cc3ccc(Cl)cc3)c2=O)cc1,–,inactive: 4.32% [at 46.1 µM]
O=C(CCSc1ccc(Cl)c(Cl)c1)NC12CC3CC(CC(C3)C1)C2,–,inactive: -2.2%
CN1CCCC(OC(=O)c2cc(Cl)cc(Cl)c2)C1 (stereo not given),–,inactive: 0.981%
COc1ccc(C2CC(=O)C(C=NCCN3CCOCC3)=C(O)C2)cc1 (stereo not given),–,inactive: -4.86%
COc1ccc(C2=NO[C@@H]3C(=O)N(C4CCCCC4)C(=O)[C@H]23)cc1OC,–,inactive: 4.75%
COc1cc(C)c(NC(=O)CN(C)C)cc1Nc1nc(Nc2cccc(F)c2C(N)=O)c2cc[nH]c2n1,active: 2.5 µM,–
NS(=O)(=O)c1ccc(NC(=S)N2CCN(c3ccc(Cl)c(Cl)c3)CC2)cc1,"inconclusive: 32.6 µM [inhibitor, single point]",–
CCOC(=O)C1(Cc2cccc(OC)c2)CCN(Cc2cccn2-c2ccccn2)CC1,"inconclusive: 35.5 µM [inhibitor, single point]",–
COc1cccc(N2CCN(C(=O)c3ccc(CS(=O)c4ccc(C)cc4)o3)CC2)c1 (stereo not given),"inconclusive: 0.631 µM [inhibitor, full curve, poor fit]",–
COC(=O)CC=C[C@@H](C)[C@H](NC(=O)OCC(Cl)(Cl)Cl)c1ccc(-c2ccccc2)cc1,"inconclusive: 0.0027 µM [inhibitor, full curve, poor fit]",–
Cc1ccccc1-c1nc(-c2cccnc2)no1,"inconclusive: 9.2 µM [activator, partial curve, poor fit]",–
Cc1ccccc1CSCC(=O)N/N=C/c1cccs1,"inconclusive: 11.2 µM [inhibitor, single point]",–
O=C1CCCC2=C1C1c3ccccc3C(=O)N1c1ccc(C(=O)c3ccccc3)cc1N2 (stereo not given),"inconclusive: 10 µM [inhibitor, partial curve]",–
OCCN(CCO)c1ccc2ccccc2c1,–,inactive: 13.2% [at 46.1 µM]
CC(C)CC(=O)N1CCN(c2ccc([N+](=O)[O-])cc2Cl)CC1,–,inactive: -3.25%
Cc1nc2ccccc2c(-c2ccccc2)c1C(=O)c1ccccc1,"inconclusive: 29.1 µM [inhibitor, single point]",–
CCN(CC)C(=O)Cn1cc(SCC(=O)Nc2ccccc2C)c2ccccc21,"inconclusive: 6.31 µM [inhibitor, partial curve, poor fit]",–
Cc1ccc(CNCCC2=CCCCC2)cc1,"inconclusive: 20.6 µM [inhibitor, single point]",–

SMILES,Potency,"activity change, negative = inhibition"
Cc1cc(C(=O)COc2ncnc3sccc23)c(C)n1C,"inconclusive: 2.59 µM [activator, partial curve, poor fit]",–
CCOC(=O)N1CCc2c(sc(NCc3cc(OC)c(OC)cc3OC)c2C(=O)Nc2ccc(OCC)cc2)C1,–,inactive: 3.5% [at 46.1 µM]
CS(=O)(=O)N(Cc1ccco1)CC(O)Cn1c2ccccc2c2ccccc21 (stereo not given),"inconclusive: 25.9 µM [inhibitor, partial curve]",–
CCOC(=O)CNC(=O)CSc1nnc(NC(=O)c2ccc3c(c2)OCO3)s1,"inconclusive: 20 µM [inhibitor, partial curve, poor fit]",–
CCc1ccc(-n2c(=O)c3cccnc3n2CC(=O)Nc2cc(F)ccc2F)cc1,"inconclusive: 14.1 µM [inhibitor, partial curve]",–
Cc1cccc(-n2c(SCC(=O)N3CC(=O)Nc4ccccc43)nc3ccccc3c2=O)c1,"inconclusive: 35.5 µM [inhibitor, single point]",–
COc1ccc2[nH]c3c(c2c1)CN(C)CC3,–,inactive: 10.1%
Cc1ccc(CNC(=O)C2CCCN(c3nc4ccccc4o3)C2)cc1 (stereo not given),–,inactive: -4.08%
O=C(CCC(=O)Nc1ccc(F)cc1)N/N=C/c1ccncc1,–,inactive: -2.27%
COc1ccc(CNS(=O)(=O)NCc2ccccc2)cc1,"inconclusive: 35.5 µM [inhibitor, single point]",–
CC1CCC(NC(=O)COc2ccc(C(=O)c3ccccc3)cc2)CC1 (stereo not given),"inconclusive: 28.2 µM [inhibitor, single point]",–
COc1cccc(C(=O)Nc2ccc(Cl)c(C(F)(F)F)c2)c1,"inconclusive: 29.1 µM [inhibitor, single point]",–
Cc1ccc(-n2ncc(C(=O)O)c2C2CCN(C(=O)OC(C)(C)C)CC2)cc1,"inconclusive: 35.5 µM [inhibitor, single point]",–
CCOc1ccccc1NC(=O)CSc1ccc(-c2sc(C)nc2C)nn1,"inconclusive: 25.1 µM [inhibitor, single point]",–
CCc1nn2c(=O)cc(COC(=O)c3ccco3)nc2s1,–,inconclusive: 25.4% [activator] [at 46.1 µM]
O=C(/C=C/N1CCOCC1)c1ccc(-c2ccccc2)cc1,–,inactive: -20.1%
CC1(C)C(=O)Nc2ccccc2N1C(=O)CSc1nnc2c(Cl)cc(Cl)cn12,"inconclusive: 7.08 µM [activator, partial curve]",–
Cc1nc(SCC(=O)Nc2cc(C)on2)c2c3c(sc2n1)CCCC3,"inconclusive: 9.2 µM [inhibitor, partial curve, poor fit]",–
N#Cc1cc(O)c(-n2nnc3ccccc32)cc1C#N,–,inactive: -2.94%
CC1=NN(C(=O)c2ccncc2)C(=O)C1N=Nc1ccc2ccccc2c1 (stereo not given),"inconclusive: 22.4 µM [inhibitor, single point]",–
CCCCS/C(N)=N/N=C/c1ccccc1O,"inconclusive: 29.1 µM [inhibitor, single point]",–
Cc1cc(C)n(-c2ccc(C(=O)Nc3ccc(C)c(S(=O)(=O)N(C)C)c3)cc2)n1,"inconclusive: 20.6 µM [inhibitor, single point]",–

# Quoted at random: two entries already listed, in no set order.
SMILES,Potency,"activity change, negative = inhibition"
CCc1nn2c(=O)cc(COC(=O)c3ccco3)nc2s1,–,inconclusive: 25.4% [activator] [at 46.1 µM]
CC1=NN(C(=O)c2ccncc2)C(=O)C1N=Nc1ccc2ccccc2c1 (stereo not given),"inconclusive: 22.4 µM [inhibitor, single point]",–
